The assay concerns HEK293A TEAD-LUC reporter. As to the kind of experiment: TEAD-luciferase reporter activity (YAP activation), robust Z score vs plate; higher = stronger YAP/TEAD activation. To be noted: 24 h.

Structures can show the parent of a compound that is named as a salt. Some of the results follow. Single values are uncertain here, since repeats match poorly.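 The human kidney-derived cells carry a stably integrated construct of eight TEAD-binding elements driving luciferase, read by luminescence in a drug-repurposing library screen. A compound counts as a hit when its signal is more than five robust Z scores above the plate mean.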

For `CC(C)c1cccc(C(C)C)c1NC(=O)NCC1(c2ccccc2)CCCC1`, the TEAD-luciferase reporter activity runs as follows: (compound concentration: 200 nM) inactive: -2.48; (compound concentration: 2 uM) inactive: -0.384; (compound concentration: 10 uM) inactive: -0.635.
On the same counts, the results for `O=[N+]([O-])c1ccc(NN=C(c2ccc(O)cc2)c2ccc(O)cc2)c([N+](=O)[O-])c1` [sivifene] are inactive: -0.592, inactive: -0.108 and inactive: -2.17.
For `O=C(OC[C@H]1O[C@](O)(COC(=O)c2cccnc2)[C@@H](OC(=O)c2cccnc2)[C@@H]1OC(=O)c1cccnc1)c1cccnc1`, in that order: inactive: 1.28, inactive: -1.19 and inactive: 0.718.
With `CCN(CC)C(=O)[C@]1(c2ccccc2)C[C@@H]1CN` [levomilnacipran], under “compound concentration: 2 uM”, the TEAD-luciferase reporter activity is inactive: 1.48.
Regarding `CCN(CC)C(=O)[C@]1(c2ccccc2)C[C@@H]1CN` [Milnacipran], the TEAD-luciferase reporter activity (compound concentration: 200 nM) is inactive: -1.45 and the TEAD-luciferase reporter activity (compound concentration: 10 uM) is inactive: -0.34.
With `COc1cc(Cc2cnc(N)nc2N)cc(OC)c1Br` [brodimoprim], the TEAD-luciferase reporter activity by setting is: (compound concentration: 200 nM) inactive: 0.865; (compound concentration: 2 uM) inactive: -2.93; (compound concentration: 10 uM) inactive: 0.274.
Regarding `O=C(NCc1ccc2c(c1)OCO2)C1CN(C2CCCCC2)C(=O)N1` (centres undefined), the TEAD-luciferase reporter activity reads like this: (compound concentration: 200 nM) inactive: 0.94; (compound concentration: 10 uM) active: 10.8.
`OCCN(CCO)c1nc(N2CCCCC2)c2nc(N(CCO)CCO)nc(N3CCCCC3)c2n1` [Dipyridamole]: the TEAD-luciferase reporter activity (compound concentration: 2 uM) is inactive: -1.54.
As for `OCCN(CCO)c1nc(N2CCCCC2)c2nc(N(CCO)CCO)nc(N3CCCCC3)c2n1`, the TEAD-luciferase reporter activity by setting is: (compound concentration: 200 nM) inactive: -0.254; (compound concentration: 10 uM) inactive: -0.157.
On to `COc1cc(F)ccc1-c1cc(Nc2cc(CS(C)(=N)=O)ccn2)ncc1F` (single isomer, unassigned; (+)), for which the TEAD-luciferase reporter activity is, setting by setting: (compound concentration: 200 nM) inactive: -0.253; (compound concentration: 2 uM) inactive: -2.58; (compound concentration: 10 uM) inactive: -1.45.
For `C[C@H](NC(=O)c1ccccc1)C(=O)Nc1ccc(C2S/C(=N\c3cccc(F)c3)N(Cc3ccco3)C2=O)cc1` (some centres undefined), in that order: inactive: 0.133, inactive: -0.478 and inactive: -0.656.
On to `CC(C)(CO)[C@@H](O)C(=O)NCCC(=O)O`, for which the TEAD-luciferase reporter activity was inactive: -1.07 (compound concentration: 200 nM), inactive: -0.659 (compound concentration: 2 uM) and inactive: 3.21 (compound concentration: 10 uM).
On the same counts, the results for `CCOC(=O)C(Cc1ccc(-c2c(C)n(C)c(=O)n(C)c2=O)cc1)NC(=O)c1c(F)cccc1F` (centres undefined) are inactive: -1.14, inactive: -1.28 and inactive: 3.71.
On the same counts, the results for `CC(C)CNc1nc(=O)c2cnn3c2n1CC=C3c1cccc(C(F)(F)F)c1` are inactive: -0.894, inactive: 1.2 and inactive: -0.623.
In the case of `CC(C)(Cc1c[nH]c2ccccc12)NCC(O)COc1ccccc1C#N` (centres undefined) [Bucindolol], the TEAD-luciferase reporter activity reads like this: (compound concentration: 200 nM) inactive: -1.29; (compound concentration: 2 uM) inactive: 0.0339; (compound concentration: 10 uM) inactive: 1.51.
Regarding `Cc1cc2ncc(C(=O)NCC3CC3)cn2n1`, the TEAD-luciferase reporter activity is inactive: -1.61 (compound concentration: 200 nM) and inactive: 1.24 (compound concentration: 10 uM).
As to `CCN(CC)CCCN(c1ccccc1)C1Cc2ccccc2C1OC` (centres undefined) [Moxaprindine], the TEAD-luciferase reporter activity reads like this: (compound concentration: 200 nM) inactive: -1.55; (compound concentration: 2 uM) inactive: 0.0534; (compound concentration: 10 uM) inactive: 1.49.
For `CN(C(=O)CN(C(=O)CNC(=O)Nc1cccc(CC(=O)O)c1)c1ccccc1)c1ccccc1`, in that order: inactive: -1.24, inactive: -0.568 and inactive: -0.446.
For `COCc1c[n+]([O-])c(C)cn1`, in that order: inactive: -1.39, inactive: -0.107 and inactive: -2.04.
On the same counts, the results for `COC(=O)Nc1c(N)nc(-c2nn(Cc3ccccc3F)c3ncccc23)nc1N` are inactive: -1.72, inactive: 1.22 and inactive: 2.22.
For `CCn1cc(C(=O)O)c(=O)c2cc(F)c(-n3cccc3)cc21` [Irloxacin], the TEAD-luciferase reporter activity reads like this: (compound concentration: 200 nM) inactive: -0.97; (compound concentration: 2 uM) inactive: -2.03; (compound concentration: 10 uM) inactive: 0.698.
As to `CC(=O)N1CCN(C(=O)c2cnc3cc(C)nn3c2)CC1`, the TEAD-luciferase reporter activity by setting is: (compound concentration: 200 nM) inactive: -1.63; (compound concentration: 10 uM) inactive: -1.02.
Consider `C[C@H]1CC(=N)N[C@@H]2[C@H](Cl)[C@@H]21`, for which the TEAD-luciferase reporter activity reads like this: (compound concentration: 200 nM) inactive: -0.868; (compound concentration: 2 uM) inactive: -0.0603; (compound concentration: 10 uM) inactive: -1.83.
For `O=C(NO)c1cccnc1` [Heparit], in that order: inactive: -0.69, inactive: -0.908 and inactive: -0.185.
As to `CNC1C(O)C(OC2C(N)CC(N)C(OC3OC([C@H](C)N)CCC3N)C2O)OCC1(C)O` (some centres undefined), the TEAD-luciferase reporter activity by setting is: (compound concentration: 200 nM) inactive: -1.2; (compound concentration: 10 uM) inactive: -0.922.
On to `FC(F)(F)C(F)(F)C(F)(F)C(F)(F)C(F)(F)C(F)(F)F` [perflexane], for which the TEAD-luciferase reporter activity (compound concentration: 200 nM) was inactive: 3.87, the TEAD-luciferase reporter activity (compound concentration: 2 uM) was inactive: 1.4 and the TEAD-luciferase reporter activity (compound concentration: 10 uM) was inactive: 0.166.
Take `Cc1nc(C(=O)N2CCOC3(CCN(CCc4ccc(CCOCCC(=O)N(CCNCCc5ccc(O)c6c5OCC(=O)N6)C5CCCCCC5)cc4)CC3)C2)cs1`: the TEAD-luciferase reporter activity is inactive: 0.0931 (compound concentration: 200 nM), inactive: 0.0358 (compound concentration: 2 uM) and inactive: -0.544 (compound concentration: 10 uM).
For `NC(=O)OC[C@@H]1[C@H](NC(=O)/C(=N\OCC(=O)[O-])c2csc(N)n2)C(=O)N1S(=O)(=O)[O-]` [Carumonam disodium salt], the TEAD-luciferase reporter activity is active: 6.66 (compound concentration: 200 nM) and inactive: 4.33 (compound concentration: 10 uM).
As for `NC(=O)OC[C@@H]1[C@H](NC(=O)/C(=N\OCC(=O)[O-])c2csc(N)n2)C(=O)N1S(=O)(=O)[O-]` [carumonam], the TEAD-luciferase reporter activity (compound concentration: 2 uM) is inactive: -0.324.

The values are drawn from the supplement of paper PMC10735217.
